From PMC9581539 come the findings set out here.

Protein sequences, listed by entry. Tags and fused reporters are not part of them. Residues count along the entry.
UniProt P50552, residues 1-113: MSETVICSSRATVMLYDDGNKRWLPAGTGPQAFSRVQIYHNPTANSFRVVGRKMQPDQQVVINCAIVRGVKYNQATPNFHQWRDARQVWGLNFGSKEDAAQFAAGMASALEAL
UniProt O08808: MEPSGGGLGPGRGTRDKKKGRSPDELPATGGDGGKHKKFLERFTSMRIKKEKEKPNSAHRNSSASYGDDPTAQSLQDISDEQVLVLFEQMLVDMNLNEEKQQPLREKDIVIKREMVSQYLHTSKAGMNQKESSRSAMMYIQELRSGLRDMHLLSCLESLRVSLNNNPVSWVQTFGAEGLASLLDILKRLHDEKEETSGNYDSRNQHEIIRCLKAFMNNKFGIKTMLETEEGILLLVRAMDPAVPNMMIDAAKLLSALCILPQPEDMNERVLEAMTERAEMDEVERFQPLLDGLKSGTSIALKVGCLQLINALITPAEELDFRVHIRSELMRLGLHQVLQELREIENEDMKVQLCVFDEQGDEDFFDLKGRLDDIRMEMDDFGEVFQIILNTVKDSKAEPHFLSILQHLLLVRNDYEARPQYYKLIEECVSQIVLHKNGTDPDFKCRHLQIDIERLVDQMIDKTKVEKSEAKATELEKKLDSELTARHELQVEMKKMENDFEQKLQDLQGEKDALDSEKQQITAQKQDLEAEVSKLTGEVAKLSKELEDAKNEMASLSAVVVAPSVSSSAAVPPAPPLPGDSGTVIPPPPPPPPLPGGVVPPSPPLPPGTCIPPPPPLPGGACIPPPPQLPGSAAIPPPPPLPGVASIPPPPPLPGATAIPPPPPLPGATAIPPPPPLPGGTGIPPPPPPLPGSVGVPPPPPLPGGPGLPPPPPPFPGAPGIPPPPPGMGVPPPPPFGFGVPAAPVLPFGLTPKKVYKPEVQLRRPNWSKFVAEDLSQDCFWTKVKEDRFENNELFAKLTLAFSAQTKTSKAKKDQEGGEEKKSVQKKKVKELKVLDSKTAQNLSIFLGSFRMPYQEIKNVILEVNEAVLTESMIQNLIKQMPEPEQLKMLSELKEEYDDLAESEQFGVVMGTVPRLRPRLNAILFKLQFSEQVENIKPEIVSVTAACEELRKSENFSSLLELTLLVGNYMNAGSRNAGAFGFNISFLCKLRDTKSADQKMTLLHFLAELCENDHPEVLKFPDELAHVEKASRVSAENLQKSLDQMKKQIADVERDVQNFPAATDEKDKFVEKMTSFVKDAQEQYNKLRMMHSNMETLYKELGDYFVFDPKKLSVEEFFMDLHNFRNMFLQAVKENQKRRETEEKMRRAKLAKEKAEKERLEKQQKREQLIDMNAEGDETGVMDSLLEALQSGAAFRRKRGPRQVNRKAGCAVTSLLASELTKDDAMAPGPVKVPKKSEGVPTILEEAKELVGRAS
UniProt Q8BH43: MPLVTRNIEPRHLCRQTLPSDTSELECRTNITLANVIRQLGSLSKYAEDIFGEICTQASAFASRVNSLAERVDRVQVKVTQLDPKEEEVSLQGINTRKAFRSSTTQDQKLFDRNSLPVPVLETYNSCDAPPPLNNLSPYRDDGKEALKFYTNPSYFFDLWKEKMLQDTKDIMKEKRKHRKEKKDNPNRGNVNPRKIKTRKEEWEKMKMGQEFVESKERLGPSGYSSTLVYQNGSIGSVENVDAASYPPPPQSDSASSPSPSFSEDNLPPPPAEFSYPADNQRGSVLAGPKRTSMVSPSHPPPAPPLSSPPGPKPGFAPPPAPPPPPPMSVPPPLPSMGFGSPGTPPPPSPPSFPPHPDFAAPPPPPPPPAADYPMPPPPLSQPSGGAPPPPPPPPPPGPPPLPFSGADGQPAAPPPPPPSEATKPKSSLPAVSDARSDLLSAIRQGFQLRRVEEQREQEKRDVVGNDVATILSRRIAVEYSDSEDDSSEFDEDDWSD
UniProt Q8CBW3: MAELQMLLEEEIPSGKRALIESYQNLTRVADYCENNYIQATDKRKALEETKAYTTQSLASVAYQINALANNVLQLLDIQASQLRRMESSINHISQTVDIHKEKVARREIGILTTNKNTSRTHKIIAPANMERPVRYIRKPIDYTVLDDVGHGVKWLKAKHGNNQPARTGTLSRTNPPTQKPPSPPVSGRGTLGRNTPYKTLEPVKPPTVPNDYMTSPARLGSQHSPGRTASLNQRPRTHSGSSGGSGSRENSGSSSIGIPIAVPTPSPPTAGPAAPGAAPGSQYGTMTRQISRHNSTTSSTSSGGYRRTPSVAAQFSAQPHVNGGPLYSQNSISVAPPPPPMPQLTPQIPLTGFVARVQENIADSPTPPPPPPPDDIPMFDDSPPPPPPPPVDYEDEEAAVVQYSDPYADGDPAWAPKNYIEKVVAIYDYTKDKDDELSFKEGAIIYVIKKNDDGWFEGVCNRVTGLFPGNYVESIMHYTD
UniProt Q5SQX6: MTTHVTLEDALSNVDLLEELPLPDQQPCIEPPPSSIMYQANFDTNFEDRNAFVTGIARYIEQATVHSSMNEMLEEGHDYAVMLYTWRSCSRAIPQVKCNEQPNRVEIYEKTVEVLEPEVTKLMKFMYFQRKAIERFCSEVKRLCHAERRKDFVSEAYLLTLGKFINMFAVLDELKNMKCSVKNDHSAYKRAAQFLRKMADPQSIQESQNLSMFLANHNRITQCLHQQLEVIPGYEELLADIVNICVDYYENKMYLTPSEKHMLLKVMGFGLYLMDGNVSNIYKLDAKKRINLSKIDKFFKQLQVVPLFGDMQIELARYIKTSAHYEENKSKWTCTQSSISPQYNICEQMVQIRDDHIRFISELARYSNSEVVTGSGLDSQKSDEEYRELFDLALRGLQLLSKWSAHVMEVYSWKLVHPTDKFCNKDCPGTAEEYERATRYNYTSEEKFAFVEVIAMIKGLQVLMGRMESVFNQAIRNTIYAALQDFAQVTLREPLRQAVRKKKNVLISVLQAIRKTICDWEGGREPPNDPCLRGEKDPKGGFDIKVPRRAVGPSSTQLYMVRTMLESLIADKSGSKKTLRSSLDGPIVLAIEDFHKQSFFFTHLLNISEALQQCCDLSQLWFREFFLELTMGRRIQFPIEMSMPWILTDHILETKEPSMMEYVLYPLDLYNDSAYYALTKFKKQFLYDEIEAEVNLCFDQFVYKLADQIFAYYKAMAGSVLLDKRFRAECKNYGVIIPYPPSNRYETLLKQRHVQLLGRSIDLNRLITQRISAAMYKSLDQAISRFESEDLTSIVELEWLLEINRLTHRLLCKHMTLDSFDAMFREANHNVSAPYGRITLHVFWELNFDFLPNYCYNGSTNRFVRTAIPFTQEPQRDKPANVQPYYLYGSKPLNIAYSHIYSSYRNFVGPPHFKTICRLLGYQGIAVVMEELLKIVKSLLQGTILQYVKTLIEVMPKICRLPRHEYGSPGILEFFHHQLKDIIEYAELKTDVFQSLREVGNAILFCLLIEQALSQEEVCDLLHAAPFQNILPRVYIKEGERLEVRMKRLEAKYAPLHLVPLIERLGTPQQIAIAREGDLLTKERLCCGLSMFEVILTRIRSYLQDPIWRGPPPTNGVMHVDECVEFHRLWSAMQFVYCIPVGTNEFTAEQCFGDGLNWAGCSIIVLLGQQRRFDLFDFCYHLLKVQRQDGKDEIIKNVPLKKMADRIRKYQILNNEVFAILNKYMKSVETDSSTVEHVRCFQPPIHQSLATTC
UniProt Q7TMB8: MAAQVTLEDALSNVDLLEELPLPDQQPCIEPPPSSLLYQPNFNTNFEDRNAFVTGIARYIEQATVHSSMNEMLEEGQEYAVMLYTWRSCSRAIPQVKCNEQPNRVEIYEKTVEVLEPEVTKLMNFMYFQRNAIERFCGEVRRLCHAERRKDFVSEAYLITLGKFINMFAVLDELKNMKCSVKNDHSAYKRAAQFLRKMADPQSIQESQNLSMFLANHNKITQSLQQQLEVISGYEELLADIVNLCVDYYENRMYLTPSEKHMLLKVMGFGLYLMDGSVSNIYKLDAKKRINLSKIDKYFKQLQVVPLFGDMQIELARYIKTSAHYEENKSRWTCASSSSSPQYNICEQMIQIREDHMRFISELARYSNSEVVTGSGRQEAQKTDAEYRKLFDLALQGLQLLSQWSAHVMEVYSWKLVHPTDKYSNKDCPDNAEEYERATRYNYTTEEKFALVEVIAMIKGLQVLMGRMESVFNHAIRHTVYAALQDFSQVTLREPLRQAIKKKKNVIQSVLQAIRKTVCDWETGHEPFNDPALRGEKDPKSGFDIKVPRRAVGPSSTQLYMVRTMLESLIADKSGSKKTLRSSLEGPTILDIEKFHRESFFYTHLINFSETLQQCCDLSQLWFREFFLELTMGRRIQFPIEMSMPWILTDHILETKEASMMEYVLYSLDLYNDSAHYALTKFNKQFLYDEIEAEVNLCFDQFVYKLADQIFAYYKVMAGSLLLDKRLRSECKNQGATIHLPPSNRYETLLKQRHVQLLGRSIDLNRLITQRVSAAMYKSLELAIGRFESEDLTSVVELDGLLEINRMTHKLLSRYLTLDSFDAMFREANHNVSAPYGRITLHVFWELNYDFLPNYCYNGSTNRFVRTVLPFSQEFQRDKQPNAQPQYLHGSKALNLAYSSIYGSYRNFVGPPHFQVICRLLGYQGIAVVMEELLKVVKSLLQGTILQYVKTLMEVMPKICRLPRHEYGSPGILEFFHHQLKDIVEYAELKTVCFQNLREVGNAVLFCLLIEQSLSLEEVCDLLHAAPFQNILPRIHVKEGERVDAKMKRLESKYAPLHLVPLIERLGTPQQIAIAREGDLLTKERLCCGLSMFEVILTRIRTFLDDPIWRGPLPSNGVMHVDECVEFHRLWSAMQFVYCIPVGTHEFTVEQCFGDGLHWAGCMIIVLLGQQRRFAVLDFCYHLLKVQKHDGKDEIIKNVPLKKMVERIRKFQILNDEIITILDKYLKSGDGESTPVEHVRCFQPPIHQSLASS

Results are given in words; binding and its absence hold for the method and conditions named. In cells and extracts the contact can be indirect. These calls come from enrichment with a bait or labelling near it, and not all partners need be listed.

B1: Hem1/Nckap1l/Nap2 (protein, UniProt Q8K1X4 1-1134)
chain: MSLTSAYQLKLAEKLTILNDRGQGVLIRMYNIKKTCSDSKSKPPFLLEKSMESCLKYINKKFPNIDVRNSTQHLGPVHREKAEIIRFLTNYYQSFVDVMEFRDHVYELLNTIDACQCHFDINLNFDFTRSYLDLIVTYTSVILLLSRIEDRRILIGMYNCAHEMLHGHSDPSFARLGQMVLEYDHPLKKLTEEFGPHTKAVSGALLSLHFLFVRRNQGAEQWRSAQLLSLISSPPAMINPANSDTMACEYLSVEVMERWIIIGFLLCHGCLNSNSQCQKLWKLCLEGSLYITLIREDVLQVHKVTEDLFSSLKGYSKRVADIKESKEHAITNSGQFHCQRRQFLRTAVKELETVLNDEPGLLGPKALFAFMALSFIRDEVTWLVRHTENVTKTKTPEDYADSSIAELLFLLEEIRALVRRHIKVIQQYHLQYLARFDVLVLSDIIQNLSVCPEEESVIMSSFVSILSSLNLKQVDNEEKFDFSGLRLDWFRLQAYTSVSKAPLHLHENPDLAKVMNLIIFHSQMLDSVEKMLVETSDLSTFCFHLRTFEKMFATTLEEPTMLRYTIAFPLICAHFVHCVHEMCPEEYPHLKNHGLHHCNSFLEDLAKQTSNCVLEICAEQRNLNEQLLPKHCATTISKAKNKKSMKQRQAPRKGEPERDKPGAESHRKNRSLVTNMDKLHLNLTELALAMNHVHSFSVFEHTIFPSEYLSSHLEARLNRAIVTLAGYNATTQEILRPSELLAGVKAYISFIQSLAQFLGADASRIVRNALLQQTQPLDSSGEQTVTTLYTNWYLESLLRQASSGAIVLSPAMQAFISLPRDGEQNFSAEEFSDISEMRALAEILGPYGMKFLSENLMWHVTSQIVELKKLVVENMDILVQIRSNFSKPELMASLLPQLTGAENVLKRMTIIGVILSFRAMAQEGLQEVFSAHCPFLMGPIECLKEFVTPDTDIKVTLSVFELACAAGVSCDIDPALVAAIANLKADNSSPEEEYKVACLLLIFLAVSLPLLATDPSSFFSIEKDGYNNNIHCLTKAIIQVSAALFTLYNKNIETHLKEFLVVASVSLLQLGQETDKLKTRNRESISLLMRLVVEESPFLTLDMLESCFPYVLLRNAYREVSRAFYLNRLPASSH
B2: Hem2/Nckap1/Nap1 (protein, UniProt P28660 1-1128)
chain: MSRSVLQPSQQKLAEKLTILNDRGVGMLTRLYNIKKACGDPKAKPSYLIDKNLESAVKFIVRKFPAVETRNNNQQLAQLQKEKSEILKNLALYYFTFVDVMEFKDHVCDLLNTIDVCQVFFDITVNFDLTKNYLDLTVTYTTLMILLSRIEERKAIIGLYNYAHEMTHGASDREYPRLGQMIVDYENPLKKMMEEFVPHSKSLSDALISLQMVYPRRNLSADQWRNAQLLSLISAPSTMLNPAQSDTMPCEYLSLDAMEKWIIFGFILCHGMLNTEATALNLWKLALQSSSCLSLFRDEVFHIHKAAEDLFVNIRGYNKRINDIRECKEAAVSHAGSMHRERRKFLRSALKELATVLSDQPGLLGPKALFVFMALSFARDEIIWLLRHADNMPKKSADDFIDKHIAELIFYMEELRAHVRKYGPVMQRYYVQYLSGFDAVVLNELVQNLSVCPEDESIIMSSFVNTMTSLSVKQVEDGEVFDFRGMRLDWFRLQAYTSVSKASLSLADHRELGKMMNTIIFHTKMVDSLVEMLVETSDLSIFCFYSRAFEKMFQQCLELPSQSRYSIAFPLLCTHFMSCTHELCPEERHHIGDRSLSLCNMFLDEMAKQARNLITDICTEQCTLSDQLLPKHCAKTISQAVNKKSKKQTGKKGEPEREKPGVESMRKNRLVVTNLDKLHTALSELCFSINYVPNMAVWEHTFTPREYLTSHLEIRFTKSIVGMTMYNQATQEIAKPSELLTSVRAYMTVLQSIENYVQIDITRVFNNVLLQQTQHLDSHGEPTITSLYTNWYLETLLRQVSNGHIAYFPAMKAFVNLPTENELTFNAEEYSDISEMRSLSELLGPYGMKFLSESLMWHISSQVAELKKLVVENVDVLTQMRTSFDKPDQMAALFKRLSSVDSVLKRMTIIGVILSFRSLAQEALRDVLSYHIPFLVSSIEDFKDHIPRETDMKVAMNVYELSSAAGLPCEIDPALVVALSSQKSENISPEEEYKIACLLMVFVAVSLPTLASNVMSQYSPAIEGHCNNIHCLAKAINQIAAALFTIHKGSIEDRLKEFLALASSSLLKIGQETDKTTTRNRESVYLLLDMIVQESPFLTMDLLESCFPYVLLRNAYHAVYKQSVTSSA
B3: Abi3 (protein, UniProt Q8BYZ1 1-367)
chain: MAELQQLQQLQEFDIPTGREALRGNHSALLRVANYCEDNYLQATDKRKALEETMAFTTQALASVAYQVGNLAGHTLRMLDLQGAALRQVEAKMSTLGQMVNMHMEKVARREIGTLATVVRLPSNQKVIPPESLPSLTPYHRKPLNFACLDDIGHGVKDLSTQLSRTGTLSRKSIKAPATPVSATLGRPPRIPEPVQLPAVPDGKLSAASSASSLASAGSAEGASGIPQSKGQVAPATPPPPPVAPVTPPPPPLSAEVFLPPPPLEVSQPPLEAELPLPPPPALEGDELGLLPPPPPGFGPDEPSWVPASYLEKVVTLYPYTRQKDNELSFSEGTVICVTRRYSDGWCEGVSSEGTGFFPGNYVEPSC
B4: RIAM/Prel1/Apbblip (protein, UniProt Q8R5A3 1-670)
chain: MGESNEDIDQMFSTLLGEMDLLTQSLGVDTLPPPDPNPPREEFNYTVGFKDLNESLNALEDQDLDALMADLVADISEAEQRTIQAQKESSQNQDRFALLRASDGQGTASGGYGASAAAIDVSHHEEALPPPPVEPMLDLLPPPPPPPPPELLSKEEEEAKAKADKIKLALEKLKEAKVKKLVVKVHMDDSSTKSLMVDERQLARDVLDNLFEKTHCDCNVDWCLYEIYPELQIERVFEDHENVVEVLSDWTRDTENKVLFLEKEERYAVFKNPQNFYLDNKGKKENKETNEKMNAKNKEYLLEESFCGTSIIVPELEGALYLKEDGKKSWKRRYFLLRASGIYYVPKGKTKTSRDLACFIQFENVNIYYGIQCKMKYKAPTDHCFVLKHPQIQKESQYIKYLCCDDARTLSQWVMGIRIAKYGKTLYDNYQRAVARAGLASRWTNLGTVGTPMPAQPSTVSSGLKTGTSQPNGQMPQAIPSAGPPLQEAQTQIETTKDEKQGLGNHSPGATRENHRPKSSLPPPPPPVRRSSDTCGSPALPSKVKGPGTCTFPHPPENFLPPPPPPPPEEDNSGLLPPPPPPPYLEEPPDFVPPPPPPAAVEDSALPPPPPPPPCLSQEITKSSPLPPKKPLVPPKRQENQGLPGAPGNSEQDFMSDLMKALQKKRGNIP
B5: Lamellipodin/Raph1 (protein, UniProt F2Z3U3 1-1266)
chain: MEQLSDEEIDHGAEEDSDKEDQDLDKMFGAWLGELDRLTQSLDSDKPKEPVKRSPLRQETNMANFSYRFSIYNLNEALNQGETVDLDALMADLCSIEQELSSIGSGNSKRQVTEPKVPQKLPAGRHTSKHGTLRGPSSSSNRTTKPSHANYSLDDITAQLEQASLSMDEAAQQSLVEDPKPLVTNQHRRTASAGTVSDAEARSISNSSRSSITSAASSMDSLDIDKVTRPQELDLTTHQGQPITEEEQAAKLKAEKIRVALEKIKEAQVKKLVIRVHMSDDSSKTMMVDERQTVRQVLDNLMDKSHCGYSLDWSLVETISELQMERIFEDHENLVENLLNWTRDSQNKLIFMERIEKYALFKNPQNYLLGKKETAEMADRNKEVLLEECFCGSSVTVPEIEGVLWLKDDGKKSWKKRYFLLRASGIYYVPKGKAKVSRDLVCFLQLDHVNVYYGQDYRNKYKAPTDCCLALKHPQIQKKSQYIKYLCCDDARTLHQWVNGIRIAKYGKQLYTNYQEALKRTESAYDWTSLSSSSIKSGSSSSSIPESQSNHSNQSDSGVSDTLPTGHIRSQSTVSSIFSEAWKRGTQLEESSKARMESMNRSYTSLMPPLSPQTKIITPYTASQPSPPLPPPPPPPPPPPPPPPPPPPPLPSQSAPSSGSAATMFVKYSTITRLQNAAQHSGTLFKSPTPPAMQPLPLASQSKAQIVVPPNGVIPPPPPPPPPPTPGSAMAQLKPVPCAPSLPQFSPQPPPLKIHQVQHLPQTAPPTPPPAPPITATVPPQAPPKPLVTIPPSASTKTVSPVVAQAVPPTPAPPVPPAKKQPVFPVSHIPPTPPVQPTPHPPPTLPKQQSFGVKPPPSPLSPVPSVVKQIASQFPPPPTPPPVDSQPLKSLPASGTPQSPPAVKAKPKWQPSSIPVPSPDFPPPPPESSLVFPPPPPPAPAPAPPPPPPPPPPPPPVPPTASPTPDKGGSPGKKTSKMSSPGGKKPPPTPQRNSSIKSGSCAEHPEPKRPSVDSLVSKFAPPAESGSPSKETPPPPAAPPKPGKLHLSGVNLPGIHQQGIVSAKASVLSGRGKDVVVEFPSPPSDSDFPPPPPEIELPLPPIEIPAVFSGNTSPKVAVVNPQPQLWSKTSVKKAPPPTRPKRNDSTRLTQADISEQPAMTTVVPQVPTSPKSSLSVQPGFLADLNRTLQRKSITRHGSLSSSRMSRAEPTATMDDMALPPPPPELLSDQQKAGFGGSHISGYATLRRGPPPAPPKRDQNTKLSRDW

For the test, the target named is GST-tagged VASP-EVH1 domain (UniProt P50552). Nature of the test: affinity purification with mass spectrometry; GST-VASP-EVH1 on GST-bind resin beads incubated with lysates of immature or mature (LPS-treated) DCs in RIPA buffer (10 mM HEPES, 50 mM NaCl, 1% NP-40, 0.5% DOC, 0.1% SDS, pH 7.7), with or without 100 µM EVH1-specific inhibitor ProM; eluates by LC/MS, label-free quantification; hits: enriched over, or absent from, the inhibitor-treated sample; two independent experiments; only the target purified.
Turning to “mDia1/Diaph1 (from UniProt O08808 1-1255)”, the binding entry was “binds”. For “Wave2/Scar2/Wasf2 (from UniProt Q8BH43 1-497)” the value was “binds”; for Abi1 (from UniProt Q8CBW3 1-481), “binds”; for Cyfip2 (from UniProt Q5SQX6 1-1253), “binds”. For Cyfip1 (from UniProt Q7TMB8 1-1253), the binding entry is reported as “binds”. B1: the binding result is recorded as “binds”.

For the molecule B2, the binding result was “binds”. On to B3, for which the binding entry was “binds”.

For B4, the binding entry is given as “binds”. Regarding B5, the binding entry was “binds”.
